PubChem BioAssay AID1259279 | Sanger Institute | 2017
Test: 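Kinase-wide knock-down seeking synergy with BYL719, cetuximab or trametinib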 (primary screen). Cells: LS180 human colorectal cancer cells. Knock-down reagent: siRNA pool against human genes. Conditions: anchor drug BYL719 at 1 µM, cetuximab at 5 µg/ml or trametinib at 10 nM, or DMSO vehicle only. Detection: 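Cell viability versus a non-targeting pool, as a fraction and as a robust z-score from replicate means, plus a synergy score for each of three drugs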. Direction: viability z-score, no drug: higher = more viable cells after knock-down; viability, no drug: higher = more viable cells; synergy score with BYL719 and synergy score with cetuximab and synergy score with trametinib: higher = stronger synthetic lethal synergy with drug. Call rule: 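a knock-down is called active, meaning essential, if its viability z-score in vehicle alone falls below -3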. Calls: active = essential (knock-down alone cuts viability); inactive = no change without drug.
The whole screen tested 794 reagents; below is a random part of them. 11 of all reagents (1.4%) count as active. 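Calls reflect knock-down alone in the vehicle arm, not drug synergy.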 Viability is capped at 1. Not stated in the record: the amount of reagent, the time to read-out.

gene symbol	viability z-score, no drug	viability, no drug (fraction)	synergy score with BYL719	synergy score with cetuximab	synergy score with trametinib	call
IPMK	0.739	0.987	-0.115	-0.119	-0.116	inactive
ABL1	0.246	0.933	-0.139	-0.0492	-0.0382	inactive
RPS6KA5	-0.967	0.801	0.0181	-0.0136	-0.076	inactive
RIOK3	0.86	1	-0.00247	-0.00632	-0.0348	inactive
RSKR	0.456	0.956	-0.141	-0.0643	-0.124	inactive
PIP5K1B	0.86	1	-0.0203	0.0257	-0.00629	inactive
PIK3C3	0.86	1	-0.0436	-0.0591	-0.0515	inactive
TESK2	0.0901	0.916	-0.121	-0.189	-0.21	inactive
PTK2	-0.845	0.814	-0.0827	0.0424	-0.0549	inactive
BRSK1	0.56	0.967	-0.101	-0.133	0.0759	inactive
TNIK	0.036	0.91	-0.0885	-0.0433	-0.047	inactive
ABL2	0.86	1	0.0363	-0.0268	-0.0948	inactive
CHUK	-0.368	0.866	-0.308	-0.241	-0.36	inactive
NR4A2	-2.69	0.613	-0.0942	-0.0199	0.0473	inactive
CAMK2N1	-2.09	0.679	-0.0565	0.00306	-0.123	inactive
ZAP70	-0.411	0.861	-0.0849	-0.0542	0.118	inactive
NF1	0.86	1	-0.0974	-0.0589	-0.00112	inactive
TCF7L2	0.86	1	-0.201	-0.166	-0.108	inactive
AK4	-0.894	0.809	-0.232	-0.192	0.0426	inactive
KCNH2	0.86	1	0.071	-0.0537	0.00278	inactive
DCLK1	-0.581	0.843	-0.0593	-0.0868	-0.128	inactive
NTRK3	0.86	1	-0.167	-0.166	0.0769	inactive
RPS6KA3	0.52	0.963	-0.0471	-0.175	-0.0714	inactive
AURKA	-1.74	0.716	0.0364	0.0484	0.0508	inactive
LATS2	0.821	0.996	-0.0226	-0.169	-0.103	inactive
CDKN1A	0.86	1	-0.138	-0.166	-0.155	inactive
PDPK1	0.86	1	0.0642	-0.0533	0.135	inactive
ITPK1	0.86	1	-0.0601	-0.012	-0.0545	inactive
FRK	0.86	1	-0.0768	-0.0295	-0.0506	inactive
SHPK	-0.735	0.826	-0.34	-0.156	-0.151	inactive
PI4K2A	0.749	0.988	-0.0242	-0.0225	-0.155	inactive
PKM	-0.504	0.851	-0.0297	-0.146	0.0175	inactive
MAPK12	0.86	1	-0.181	-0.0534	-0.0951	inactive
GK2	0.515	0.962	-0.0396	-0.0652	0.0434	inactive
MAP3K21	-0.91	0.807	-0.177	-0.235	-0.233	inactive
STK36	0.86	1	-0.0514	0.0629	0.3	inactive
BRAF	-0.59	0.842	0.106	0.118	0.101	inactive
EPHA5	0.81	0.995	0.0177	-0.11	0.0596	inactive
MAPK8	0.86	1	-0.16	-0.13	0.0593	inactive
RPS6KB2	-0.665	0.834	-0.00559	-0.162	-0.146	inactive
PRKY	-0.796	0.819	-0.037	0.0411	-0.159	inactive
TSSK4	0.86	1	-0.107	-0.155	-0.0127	inactive
ERN1	0.34	0.943	0.129	-0.0511	0.184	inactive
DGKG	-0.561	0.845	-0.269	-0.138	-0.0891	inactive
DGKA	-2.34	0.651	-0.0782	0.0279	-0.17	inactive
SIK3	0.86	1	-0.108	-0.166	-0.162	inactive
PXK	-0.467	0.855	-0.0632	-0.0448	-0.0855	inactive
CAMK2B	-0.0646	0.899	0.0781	-0.185	-0.0337	inactive
BUB1	0.86	1	0.00692	-0.135	-0.00988	inactive
CDK20	0.371	0.947	0.0958	0.14	0.109	inactive

3 neighbouring reagents already listed, quoted:
gene symbol	viability z-score, no drug	viability, no drug (fraction)	synergy score with BYL719	synergy score with cetuximab	synergy score with trametinib	call
TSSK4	0.86	1	-0.107	-0.155	-0.0127	inactive
ERN1	0.34	0.943	0.129	-0.0511	0.184	inactive
DGKG	-0.561	0.845	-0.269	-0.138	-0.0891	inactive
